Measurements published in paper doi:10.1101/843219.

Amino acid sequences for entries named in this document (tags omitted). A change or cut given only in a name is not applied to a line headed by its entry.
UniProt O95248: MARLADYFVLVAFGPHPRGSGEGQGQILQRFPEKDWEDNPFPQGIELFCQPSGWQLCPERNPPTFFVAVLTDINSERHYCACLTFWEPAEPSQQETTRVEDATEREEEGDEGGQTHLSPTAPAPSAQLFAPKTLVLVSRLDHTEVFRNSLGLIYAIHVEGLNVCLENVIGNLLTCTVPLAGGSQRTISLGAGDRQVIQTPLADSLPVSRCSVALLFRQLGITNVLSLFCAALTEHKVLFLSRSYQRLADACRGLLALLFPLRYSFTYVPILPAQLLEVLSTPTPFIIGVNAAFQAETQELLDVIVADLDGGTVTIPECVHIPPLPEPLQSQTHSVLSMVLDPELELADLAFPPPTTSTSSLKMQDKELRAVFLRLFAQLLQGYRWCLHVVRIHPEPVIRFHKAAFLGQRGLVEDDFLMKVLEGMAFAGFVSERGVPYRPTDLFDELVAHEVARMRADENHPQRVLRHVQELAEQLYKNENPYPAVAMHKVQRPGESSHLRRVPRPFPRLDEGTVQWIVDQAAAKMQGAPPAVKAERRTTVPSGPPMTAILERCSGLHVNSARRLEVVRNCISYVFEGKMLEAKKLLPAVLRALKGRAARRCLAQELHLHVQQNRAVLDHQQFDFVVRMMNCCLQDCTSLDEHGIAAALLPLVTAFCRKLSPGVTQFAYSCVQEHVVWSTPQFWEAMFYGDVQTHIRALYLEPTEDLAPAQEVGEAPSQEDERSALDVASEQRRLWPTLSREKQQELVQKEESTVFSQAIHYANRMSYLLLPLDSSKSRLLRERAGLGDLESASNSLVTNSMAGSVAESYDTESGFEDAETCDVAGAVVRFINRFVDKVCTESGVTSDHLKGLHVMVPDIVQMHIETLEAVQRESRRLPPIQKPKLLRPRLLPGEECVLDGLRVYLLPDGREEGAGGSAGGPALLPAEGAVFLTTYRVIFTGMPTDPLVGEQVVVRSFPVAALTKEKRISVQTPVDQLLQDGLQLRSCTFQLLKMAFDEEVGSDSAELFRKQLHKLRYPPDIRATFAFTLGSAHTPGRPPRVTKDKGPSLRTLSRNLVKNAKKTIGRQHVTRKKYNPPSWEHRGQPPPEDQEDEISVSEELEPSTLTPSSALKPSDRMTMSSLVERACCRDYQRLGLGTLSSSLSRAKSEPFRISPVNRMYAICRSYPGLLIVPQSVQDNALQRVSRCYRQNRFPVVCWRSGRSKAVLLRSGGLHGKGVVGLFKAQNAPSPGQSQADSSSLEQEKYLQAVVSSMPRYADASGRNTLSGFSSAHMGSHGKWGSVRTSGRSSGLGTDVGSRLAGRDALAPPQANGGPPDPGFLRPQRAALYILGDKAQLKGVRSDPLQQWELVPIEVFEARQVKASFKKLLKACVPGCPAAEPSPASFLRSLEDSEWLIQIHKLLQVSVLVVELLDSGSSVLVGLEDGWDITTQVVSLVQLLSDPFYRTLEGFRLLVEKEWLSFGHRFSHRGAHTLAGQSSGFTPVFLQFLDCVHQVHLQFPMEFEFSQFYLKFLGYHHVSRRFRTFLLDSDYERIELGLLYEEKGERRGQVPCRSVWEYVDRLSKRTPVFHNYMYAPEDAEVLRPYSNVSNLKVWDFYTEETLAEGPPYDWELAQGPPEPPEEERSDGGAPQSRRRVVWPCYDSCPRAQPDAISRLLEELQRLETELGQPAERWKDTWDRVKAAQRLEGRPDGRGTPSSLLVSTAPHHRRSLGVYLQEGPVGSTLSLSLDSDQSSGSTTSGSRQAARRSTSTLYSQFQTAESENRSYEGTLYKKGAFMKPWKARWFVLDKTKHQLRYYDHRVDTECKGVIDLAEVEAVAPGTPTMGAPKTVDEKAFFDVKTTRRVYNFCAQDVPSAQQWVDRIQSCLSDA
UniProt Q86WG5: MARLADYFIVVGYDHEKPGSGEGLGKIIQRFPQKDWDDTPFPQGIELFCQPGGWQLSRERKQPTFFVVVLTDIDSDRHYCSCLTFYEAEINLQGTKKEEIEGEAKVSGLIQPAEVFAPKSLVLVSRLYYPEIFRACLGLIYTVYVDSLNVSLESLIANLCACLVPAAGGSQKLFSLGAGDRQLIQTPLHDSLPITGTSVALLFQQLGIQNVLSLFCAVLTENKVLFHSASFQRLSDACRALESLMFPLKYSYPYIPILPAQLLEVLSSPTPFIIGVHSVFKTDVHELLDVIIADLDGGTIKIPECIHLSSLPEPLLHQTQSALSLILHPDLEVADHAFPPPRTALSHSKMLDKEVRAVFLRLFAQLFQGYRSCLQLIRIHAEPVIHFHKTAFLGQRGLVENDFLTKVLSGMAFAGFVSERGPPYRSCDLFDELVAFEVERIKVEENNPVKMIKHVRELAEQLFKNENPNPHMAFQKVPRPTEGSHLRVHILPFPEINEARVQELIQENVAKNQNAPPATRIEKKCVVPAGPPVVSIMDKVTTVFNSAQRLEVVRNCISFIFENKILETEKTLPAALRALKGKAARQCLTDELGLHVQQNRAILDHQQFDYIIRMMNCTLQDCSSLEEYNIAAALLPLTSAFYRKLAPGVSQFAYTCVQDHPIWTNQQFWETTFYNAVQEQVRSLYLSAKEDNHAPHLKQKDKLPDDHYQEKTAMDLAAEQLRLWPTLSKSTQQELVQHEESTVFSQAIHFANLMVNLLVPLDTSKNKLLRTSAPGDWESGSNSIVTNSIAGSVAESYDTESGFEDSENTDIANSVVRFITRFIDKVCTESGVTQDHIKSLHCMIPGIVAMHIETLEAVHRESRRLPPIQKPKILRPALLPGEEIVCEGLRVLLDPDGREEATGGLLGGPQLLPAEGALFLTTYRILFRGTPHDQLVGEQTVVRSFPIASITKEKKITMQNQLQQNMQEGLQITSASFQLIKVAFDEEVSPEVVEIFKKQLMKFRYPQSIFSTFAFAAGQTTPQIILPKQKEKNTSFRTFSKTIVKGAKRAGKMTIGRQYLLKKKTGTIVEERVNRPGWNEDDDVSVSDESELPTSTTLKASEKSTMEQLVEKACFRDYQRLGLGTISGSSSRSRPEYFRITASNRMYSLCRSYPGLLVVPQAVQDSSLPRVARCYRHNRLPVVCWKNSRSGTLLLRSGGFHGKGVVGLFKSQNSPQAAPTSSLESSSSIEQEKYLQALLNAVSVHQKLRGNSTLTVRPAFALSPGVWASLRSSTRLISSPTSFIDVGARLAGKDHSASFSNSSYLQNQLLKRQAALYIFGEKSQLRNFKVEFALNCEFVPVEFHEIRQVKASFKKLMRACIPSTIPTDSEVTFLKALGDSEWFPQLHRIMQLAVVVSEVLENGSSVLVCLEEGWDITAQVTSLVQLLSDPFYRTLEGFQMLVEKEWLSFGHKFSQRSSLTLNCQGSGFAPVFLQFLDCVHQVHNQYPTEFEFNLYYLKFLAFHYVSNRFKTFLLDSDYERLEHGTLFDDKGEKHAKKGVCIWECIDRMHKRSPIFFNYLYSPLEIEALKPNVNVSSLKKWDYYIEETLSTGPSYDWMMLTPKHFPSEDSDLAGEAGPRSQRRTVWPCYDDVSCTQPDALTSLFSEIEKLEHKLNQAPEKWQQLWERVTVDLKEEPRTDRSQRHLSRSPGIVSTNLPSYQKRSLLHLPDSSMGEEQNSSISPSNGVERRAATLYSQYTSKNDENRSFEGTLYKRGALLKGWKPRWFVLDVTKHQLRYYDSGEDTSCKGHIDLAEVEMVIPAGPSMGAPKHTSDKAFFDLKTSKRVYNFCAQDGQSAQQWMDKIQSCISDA
UniProt Q13614: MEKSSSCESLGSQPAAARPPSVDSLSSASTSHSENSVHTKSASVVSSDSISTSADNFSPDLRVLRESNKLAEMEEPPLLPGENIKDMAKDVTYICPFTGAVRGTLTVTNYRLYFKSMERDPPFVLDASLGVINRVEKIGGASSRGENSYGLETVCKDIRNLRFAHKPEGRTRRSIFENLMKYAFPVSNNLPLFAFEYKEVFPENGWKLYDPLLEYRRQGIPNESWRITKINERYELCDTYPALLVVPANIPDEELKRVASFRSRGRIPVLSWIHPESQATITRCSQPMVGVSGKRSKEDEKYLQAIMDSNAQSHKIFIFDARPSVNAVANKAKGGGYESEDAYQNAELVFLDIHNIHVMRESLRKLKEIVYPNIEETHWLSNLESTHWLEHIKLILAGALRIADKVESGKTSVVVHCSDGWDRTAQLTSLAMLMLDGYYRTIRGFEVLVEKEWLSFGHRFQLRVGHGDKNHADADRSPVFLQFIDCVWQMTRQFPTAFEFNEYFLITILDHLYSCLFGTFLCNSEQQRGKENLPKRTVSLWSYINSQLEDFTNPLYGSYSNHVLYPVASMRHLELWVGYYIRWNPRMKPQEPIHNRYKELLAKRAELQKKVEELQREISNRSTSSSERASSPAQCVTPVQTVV

Experiments:
[1] = biological target: human FLAG-MTMR5-AM1 (myotubularin-related 5; SET Binding Factor 1) (human) (UniProt O95248); test: co-IP
myc-MTMR13 (human) = myc-MTMR13 (human) (UniProt Q86WG5); test: co-IP

| Substance | binding [1] | binding (myc-MTMR13 (human)) |
| --- | --- | --- |
| human EGFP-MTMR2 (myotubularin-related 2) (from UniProt Q13614 1-643) | binds |  |
| human FLAG-MTMR5-AM1 (myotubularin-related 5; SET Binding Factor 1) (from UniProt O95248-1) |  | binds weakly |
| human EGFP-MTMR13 (myotubularin-related 13; SBF2) (from UniProt Q86WG5 1-1849) | binds weakly |  |

No constants are given. Whether binding was seen depends on the method and setting. Binding seen in cells or lysates may run through a third protein. Binding calls can cover weak binding; strength is not graded here.
